In the supplement of paper PMC6078165:
± gives the standard deviation of the averaged measurements. The reference is the same well before dosing, and untreated signal decays as well.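 Fibroblast labels denote human fibroblasts, mainly primary ones from uterus (C12385, HUF), lung (H6013), bone (Hs27A), adrenal (HADF) and skin (WS1), plus mammary HMF and breast cancer-associated Hs343T. Cancer cells are basal-like or mesenchymal-like triple-negative breast cancer lines. A hit is a response shift exceeding 3x replicate standard deviation. The tissue of the other fibroblasts is not given here.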

Test system: BT20
Assay: relative JC-1 red fluorescence (viability) vs pre-drug, coculture with fibroblast (fraction); higher = more viable cancer cells
Details: 10 µM
Experimental: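 JC-1 labelled TNBC cells cocultured 1:1 (1,500 cells each) with CellTrace Violet stained primary or stromal fibroblasts in 384-well plates in FluoroBrite medium, treated with one of 42 anticancer drugs at 0.1, 1, 10 or 100 uM. JC-1 red fluorescence (mitochondrial integrity in cancer cells only) was read by plate reader every 8 h for 72 h. Values are normalised to each well's pre-drug value. The stock of one drug was tenfold lower, so its dose labels may be too high.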

CCc1c2c(nc3ccc(OC(=O)N4CCC(N5CCCCC5)CC4)cc13)-c1cc3c(c(=O)n1C2)COC(=O)[C@]3(O)CC [Irinotecan]
relative JC-1 red fluorescence
Details	8 h	16 h	24 h	32 h	40 h	48 h	56 h	64 h	72 h
coculture fibroblast: C12385	0.918 ± 0.022	0.851 ± 0.016	0.857 ± 0.046	0.804 ± 0.053	0.761 ± 0.049	0.737 ± 0.059	0.721 ± 0.056	0.717 ± 0.078	0.704 ± 0.077
coculture fibroblast: H6013	0.943 ± 0.0083	0.9204 ± 0.0065	0.8936 ± 0.0042	0.8437 ± 0.0075	0.795 ± 0.0083	0.78 ± 0.015	0.778 ± 0.0052	0.7616 ± 0.0033	0.75027 ± 0.00036
coculture fibroblast: H6019	0.88 ± 0.034	0.841 ± 0.025	0.825 ± 0.022	0.763 ± 0.038	0.712 ± 0.028	0.698 ± 0.018	0.67 ± 0.021	0.651 ± 0.012	0.634 ± 0.014
coculture fibroblast: H6076	0.877 ± 0.088	0.927 ± 0.016	0.873 ± 0.019	0.862 ± 0.043	0.828 ± 0.061	0.814 ± 0.072	0.816 ± 0.095	0.827 ± 0.11	0.82 ± 0.11
coculture fibroblast: H6231	0.888 ± 0.061	0.946 ± 0.03	0.854 ± 0.013	0.7803 ± 0.0077	0.722 ± 0.017	0.66 ± 0.023	0.601 ± 0.024	0.578 ± 0.03	0.531 ± 0.034
coculture fibroblast: HADF	0.846 ± 0.18	0.893 ± 0.033	0.8558 ± 0.0012	0.815 ± 0.0086	0.781 ± 0.021	0.742 ± 0.021	0.731 ± 0.03	0.707 ± 0.025	0.68 ± 0.028
coculture fibroblast: HCFa	0.908 ± 0.02	0.8629 ± 0.0066	0.829 ± 0.011	0.76 ± 0.013	0.709 ± 0.016	0.669 ± 0.0075	0.6428 ± 0.005	0.6161 ± 0.0018	0.582 ± 0.003
coculture fibroblast: HCPF	0.976 ± 0.013	0.901 ± 0.021	0.847 ± 0.025	0.8 ± 0.034	0.767 ± 0.041	0.725 ± 0.029	0.701 ± 0.05	0.681 ± 0.027	0.649 ± 0.035
coculture fibroblast: HHSteC	0.9116 ± 0.0018	0.864 ± 0.024	0.836 ± 0.049	0.763 ± 0.049	0.7 ± 0.06	0.662 ± 0.061	0.629 ± 0.073	0.603 ± 0.08	0.573 ± 0.086
coculture fibroblast: HMF	0.9688 ± 0.0049	0.9016 ± 0.0089	0.823 ± 0.011	0.773 ± 0.011	0.738 ± 0.014	0.706 ± 0.018	0.681 ± 0.0093	0.647 ± 0.016	0.6243 ± 0.0019
coculture fibroblast: HPFa	0.955 ± 0.035	0.895 ± 0.064	0.894 ± 0.083	0.819 ± 0.11	0.8 ± 0.12	0.764 ± 0.14	0.745 ± 0.14	0.717 ± 0.13	0.684 ± 0.13
coculture fibroblast: HUF	0.908 ± 0.02	0.819 ± 0.028	0.789 ± 0.029	0.702 ± 0.032	0.652 ± 0.03	0.601 ± 0.024	0.565 ± 0.026	0.54 ± 0.026	0.526 ± 0.027
coculture fibroblast: Hs5	0.849 ± 0.0096	0.971 ± 0.02	0.876 ± 0.0071	0.824 ± 0.021	0.777 ± 0.029	0.734 ± 0.03	0.704 ± 0.052	0.676 ± 0.052	0.668 ± 0.059
coculture fibroblast: Hs27A	0.889 ± 0.058	0.766 ± 0.079	0.895 ± 0.041	0.906 ± 0.014	0.931 ± 0.073	0.924 ± 0.1	0.91 ± 0.11	0.898 ± 0.12	0.861 ± 0.13
coculture fibroblast: Hs343T	0.865 ± 0.15	0.946 ± 0.066	0.88 ± 0.062	0.833 ± 0.062	0.787 ± 0.029	0.746 ± 0.029	0.703 ± 0.033	0.679 ± 0.029	0.644 ± 0.019
coculture fibroblast: WS1	0.849 ± 0.013	0.783 ± 0.04	0.773 ± 0.091	0.71 ± 0.11	0.659 ± 0.13	0.646 ± 0.14	0.625 ± 0.15	0.61 ± 0.15	0.597 ± 0.16
